From ChEMBL document CHEMBL3988442, “University of Dundee, Small-Polar-MMV Screening Library” (2021).

By UniProt entry, the sequences of proteins in these tests, tags left out. Residues count along the entry.
UniProt A4I591, 1-473: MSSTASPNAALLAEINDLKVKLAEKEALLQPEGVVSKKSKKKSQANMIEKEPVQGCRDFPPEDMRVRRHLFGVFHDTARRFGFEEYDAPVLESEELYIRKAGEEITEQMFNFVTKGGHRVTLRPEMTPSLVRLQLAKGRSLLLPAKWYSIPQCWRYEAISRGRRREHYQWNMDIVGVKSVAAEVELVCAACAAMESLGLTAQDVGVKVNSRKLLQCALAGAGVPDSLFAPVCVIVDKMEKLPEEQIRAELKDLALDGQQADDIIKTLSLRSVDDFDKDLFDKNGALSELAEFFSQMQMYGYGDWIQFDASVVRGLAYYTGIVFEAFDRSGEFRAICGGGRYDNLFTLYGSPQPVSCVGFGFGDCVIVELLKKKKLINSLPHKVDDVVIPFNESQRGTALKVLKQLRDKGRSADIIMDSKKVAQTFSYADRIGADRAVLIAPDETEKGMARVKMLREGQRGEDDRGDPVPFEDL
UniProt Q4DA54, 1-478: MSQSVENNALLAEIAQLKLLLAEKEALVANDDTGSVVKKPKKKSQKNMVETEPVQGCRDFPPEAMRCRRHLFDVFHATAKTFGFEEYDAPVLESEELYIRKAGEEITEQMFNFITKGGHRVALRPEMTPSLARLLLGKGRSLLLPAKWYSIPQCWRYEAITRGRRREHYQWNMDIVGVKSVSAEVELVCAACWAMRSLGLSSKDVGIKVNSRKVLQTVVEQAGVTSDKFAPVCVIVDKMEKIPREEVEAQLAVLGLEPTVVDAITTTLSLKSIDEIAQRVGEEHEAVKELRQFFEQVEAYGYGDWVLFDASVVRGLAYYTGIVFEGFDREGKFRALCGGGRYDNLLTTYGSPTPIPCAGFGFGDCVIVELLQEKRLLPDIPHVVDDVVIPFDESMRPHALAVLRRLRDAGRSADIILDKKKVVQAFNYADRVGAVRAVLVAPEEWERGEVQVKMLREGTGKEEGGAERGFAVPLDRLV
UniProt Q8IDJ8, 1-583: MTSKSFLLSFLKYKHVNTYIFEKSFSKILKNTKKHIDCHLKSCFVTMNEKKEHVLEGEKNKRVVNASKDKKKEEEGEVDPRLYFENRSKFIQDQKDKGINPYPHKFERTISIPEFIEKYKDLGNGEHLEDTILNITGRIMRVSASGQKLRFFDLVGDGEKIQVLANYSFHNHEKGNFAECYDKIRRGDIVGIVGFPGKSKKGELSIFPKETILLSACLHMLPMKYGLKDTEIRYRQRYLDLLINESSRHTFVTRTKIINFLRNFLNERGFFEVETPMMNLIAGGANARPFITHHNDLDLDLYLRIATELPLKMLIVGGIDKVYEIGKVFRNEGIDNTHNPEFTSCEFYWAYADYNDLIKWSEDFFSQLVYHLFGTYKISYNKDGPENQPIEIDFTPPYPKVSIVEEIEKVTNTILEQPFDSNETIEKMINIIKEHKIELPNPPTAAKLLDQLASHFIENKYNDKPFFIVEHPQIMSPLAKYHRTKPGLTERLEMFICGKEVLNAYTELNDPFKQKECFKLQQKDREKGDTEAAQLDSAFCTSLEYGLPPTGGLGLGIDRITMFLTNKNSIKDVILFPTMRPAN

LiHisRS: 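Enzyme assay of histidyl-tRNA synthetase; the read-out is not stated. Target: Histidine-tRNA ligase, Leishmania infantum (UniProt A4I591). Concentration: 30 µM. Higher reads as stronger inhibition (inferred: compounds with an IC50 in retests scored well above the rest). The assay is labelled LdHisRS but filed under L. infantum. Size under these conditions: about 69,000 compounds, about 410 of them at 50% or above in at least one test.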
TcHisRS: 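Enzyme assay of histidyl-tRNA synthetase; the read-out is not stated. Target: Histidine-tRNA ligase, Trypanosoma cruzi CL Brener (UniProt Q4DA54). Tested at 30 µM. Direction is inferred from retests: higher values go with stronger inhibition. Size under these conditions: about 69,000 compounds, about 31 of them at 50% or above in at least one test.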
PfKRS1: 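Enzyme assay of the cytosolic lysyl-tRNA synthetase in 384-well plates, read by luminescence. Target: Lysine-tRNA ligase, Plasmodium falciparum 3D7 (UniProt Q8IDJ8). Concentration: 30 µM. Higher reads as stronger inhibition, judged from the few compounds that gave an IC50. About 69,000 compounds were tested under these conditions; 0.071% (about 49) showed 50% or more at least once.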
Leishmania in macrophages: 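Cell assay of Leishmania donovani living inside macrophages; the read-out is not stated. Compounds at 30 µM. Higher reads as stronger inhibition (inferred: compounds with an IC50 in retests scored well above the rest). Size under these conditions: about 69,000 compounds, about 1,000 of them at 50% or above in at least one test.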

Values are the deposited “Percent Effect”, in %.
How 0% and 100% were set is not recorded. Most values in the screen are low, and negative values occur.
Compounds were drawn at random from those tested, without regard to their results.
Two or more numbers in one place are separate tests of the same structure; such repeats can differ widely.
A dash means the value is not listed here; it may have been measured.

structure: CCS(=O)(=O)N1CCc2ccc(=O)n(CC3CC3)c2CC1
LiHisRS: 16.81
TcHisRS: -2.151
PfKRS1: 0.6412
Leishmania in macrophages: 0.9881 and 24.79

structure: CCc1nccn1CCNC1CCN(c2nc3ccc(Cl)cc3s2)CC1
LiHisRS: 23.81
TcHisRS: 2.564
PfKRS1: 0.8156
Leishmania in macrophages: 98.8

structure: CC(C)Cc1nc(CN2CCC(NC(=O)c3cccs3)CC2)no1
LiHisRS: 22.35
TcHisRS: 4.933
PfKRS1: 4.284
Leishmania in macrophages: -24.92

structure: CN(C)c1ccc(CC2CCCN(c3cnccn3)C2)nn1 (stereo not shown)
LiHisRS: 11.27
TcHisRS: 6.923
PfKRS1: -0.04359
Leishmania in macrophages: 29.75

structure: Cc1cnn(CC(=O)N2CCC(Nc3ccc(C)nn3)CC2)c1
LiHisRS: 5.505
TcHisRS: 2.353
PfKRS1: -0.8406
Leishmania in macrophages: 5.505

structure: CO[C@H]1C[C@@H]2CN(C(=O)c3n[nH]c4c3CCCC4)C[C@@H]2C1
LiHisRS: 5.714
TcHisRS: 4.215
PfKRS1: -1.254

structure: Cc1ccccc1OCC(=O)N1CC[C@]2(C[C@@H](OCC3CC3)CO2)C1
LiHisRS: 13.27
TcHisRS: 4.301
PfKRS1: -0.07607
Leishmania in macrophages: 1.472 and 7.834

structure: Cc1nc[nH]c1CN1C[C@@H]2CC[C@H](C1)N(C(=O)CCc1cnn(C)c1)C2
LiHisRS: 16.35
TcHisRS: 1.626
PfKRS1: 4.608

structure: CN(C)C(=O)N1C[C@@H]2CC[C@H](C1)N(C(=O)c1c(Cl)cccc1Cl)C2
LiHisRS: 8.065
TcHisRS: 0
PfKRS1: 2.987

structure: CN(C)C(=O)C1CCN(C2CCN(CC3CC3)CC2)CC1
LiHisRS: 7.692
TcHisRS: 7.263
PfKRS1: 3.54

structure: O=C(O)C(F)(F)F.O=C(O)C(F)(F)F.[H][C@@]12CCCO[C@]1([H])[C@H](NC(=O)C1CC1)CN2Cc1cccc(C)n1
Leishmania in macrophages: -8.078 and 6.675

structure: CCn1cc(CN2CCN(CC(O)c3cc(C)ccc3C)CC2)c(C)n1 (stereo not shown)
LiHisRS: 6.207
TcHisRS: 4.563
PfKRS1: 0.7901
Leishmania in macrophages: 24.79

structure: Cc1cc(CN2CCCC2c2c(C)nn(C)c2Cl)on1 (stereo not shown)
LiHisRS: 6.14
TcHisRS: 5.202
PfKRS1: 1.019
Leishmania in macrophages: 14.17

structure: O=C(NC1CCN(C2CC2)CC1)c1cn(-c2ccc(Cl)cc2)nn1
LiHisRS: 8.29
TcHisRS: 6.077
PfKRS1: 2.773
Leishmania in macrophages: -2.383

structure: NC(=O)Cn1c(SCc2noc(-c3ccsc3)n2)nnc1C1CC1
LiHisRS: 23.81
TcHisRS: 0
PfKRS1: 1.494
Leishmania in macrophages: -25

structure: O=C(NC1CC1)N1CCN(c2cnccn2)CC1
LiHisRS: 20
TcHisRS: 8.187
PfKRS1: 0.02636
Leishmania in macrophages: 24.64

structure: Cc1ccc(CN2CC(O)CN(C(=O)C3CC3)CC2=O)cc1 (stereo not shown)
LiHisRS: 18.37
TcHisRS: 11.24
PfKRS1: 6.927
Leishmania in macrophages: -3.308

structure: [H][C@]12CN(c3ncc(F)cn3)C[C@@]1([H])S(=O)(=O)CC[C@@H]2C(=O)NC(C)C
Leishmania in macrophages: -1.322

structure: CC(=O)N1N=C(c2cccs2)OC1C(=O)Nc1ccc(C(C)C)cc1 (stereo not shown)
LiHisRS: 9.901
TcHisRS: 6.818
PfKRS1: 1.908
Leishmania in macrophages: 20.07

structure: CC(C)Nc1nc2c(s1)C(=O)CN(C(=O)NCc1ccccc1)C2
LiHisRS: 11.43
TcHisRS: 0
PfKRS1: 3.413
Leishmania in macrophages: 12.12 and 7.03

structure: CCS(=O)(=O)CC(=O)NCC1(c2c(F)cccc2F)CCCC1
LiHisRS: 2.74
TcHisRS: 2.186
PfKRS1: 2.012
Leishmania in macrophages: -27.06

structure: CSc1ccc(C)c(C(=O)N2CCCC(n3cncn3)C2)c1 (stereo not shown)
LiHisRS: 17.09
TcHisRS: 6.553
PfKRS1: -1.099
Leishmania in macrophages: 19.09

structure: O=C(O)C(F)(F)F.[H][C@@]12CCCO[C@]1([H])[C@@H](Oc1ccccn1)CN2S(=O)(=O)C1CC1
Leishmania in macrophages: 1.492 and -60.16

structure: Cc1cccc(S(=O)(=O)NCC(C)N2CCN(C)CC2)c1Cl (stereo not shown)
LiHisRS: -16.04
TcHisRS: 1.674
PfKRS1: 4.312
Leishmania in macrophages: 19.09

structure: CC1CCN(C(=O)CN(Cc2ccco2)C2CC2)CC1
LiHisRS: 10.67
TcHisRS: 1.132
PfKRS1: -0.1182
Leishmania in macrophages: -19.89

structure: Cc1cc(C)n(CCN2CCOC(CNc3cccnn3)C2)n1 (stereo not shown)
LiHisRS: 34.62
TcHisRS: 17.14
PfKRS1: 4.786
Leishmania in macrophages: 12.29

structure: O=C(NC1CC1)C1CCN(c2snc3ccccc23)CC1
LiHisRS: -0.8696
TcHisRS: 1.69
PfKRS1: 0.08745
Leishmania in macrophages: 18.67

structure: O=C(O)C(F)(F)F.[H][C@@]12CCCO[C@]1([H])[C@H](NC(=O)C1CC1)CN(Cc1ccccc1)C2
Leishmania in macrophages: 9.159

3 of the entries, repeated:

| structure | LiHisRS | TcHisRS | PfKRS1 | Leishmania in macrophages |
|---|---|---|---|---|
| `CN(C)C(=O)N1C[C@@H]2CC[C@H](C1)N(C(=O)c1c(Cl)cccc1Cl)C2` | 8.065 | 0 | 2.987 | - |
| `Cc1nc[nH]c1CN1C[C@@H]2CC[C@H](C1)N(C(=O)CCc1cnn(C)c1)C2` | 16.35 | 1.626 | 4.608 | - |
| `NC(=O)Cn1c(SCc2noc(-c3ccsc3)n2)nnc1C1CC1` | 23.81 | 0 | 1.494 | -25 |